# From the supplement of paper PMC10849652
# Protein sequences, listed by entry. Tags and fused reporters are not part of them. Lines headed by an entry give the natural chain unless they say otherwise; changes in a name come on top.
# UniProt Q96BT7: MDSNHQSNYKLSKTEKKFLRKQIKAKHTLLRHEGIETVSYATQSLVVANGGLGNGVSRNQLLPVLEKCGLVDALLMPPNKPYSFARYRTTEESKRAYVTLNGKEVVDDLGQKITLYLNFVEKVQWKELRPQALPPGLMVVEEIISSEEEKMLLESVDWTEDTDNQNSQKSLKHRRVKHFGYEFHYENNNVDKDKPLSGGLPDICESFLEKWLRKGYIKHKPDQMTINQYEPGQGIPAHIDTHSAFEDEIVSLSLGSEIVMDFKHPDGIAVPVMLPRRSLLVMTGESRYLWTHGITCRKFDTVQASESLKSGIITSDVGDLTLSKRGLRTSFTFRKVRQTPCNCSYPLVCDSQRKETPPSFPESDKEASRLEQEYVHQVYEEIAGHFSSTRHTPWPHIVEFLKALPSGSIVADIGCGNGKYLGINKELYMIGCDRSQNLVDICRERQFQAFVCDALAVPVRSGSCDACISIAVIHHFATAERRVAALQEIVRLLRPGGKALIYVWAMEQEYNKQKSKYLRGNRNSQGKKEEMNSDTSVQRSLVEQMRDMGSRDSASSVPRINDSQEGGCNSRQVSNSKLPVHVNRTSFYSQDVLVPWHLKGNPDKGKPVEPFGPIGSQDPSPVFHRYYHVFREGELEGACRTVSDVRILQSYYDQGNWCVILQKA
# UniProt Q8WVL7: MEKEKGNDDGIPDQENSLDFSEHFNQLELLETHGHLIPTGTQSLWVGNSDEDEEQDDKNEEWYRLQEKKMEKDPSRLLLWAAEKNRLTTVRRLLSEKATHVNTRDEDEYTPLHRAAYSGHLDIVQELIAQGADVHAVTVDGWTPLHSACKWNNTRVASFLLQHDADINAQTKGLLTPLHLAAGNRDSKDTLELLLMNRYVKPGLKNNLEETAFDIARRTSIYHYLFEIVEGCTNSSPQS
# UniProt P05091: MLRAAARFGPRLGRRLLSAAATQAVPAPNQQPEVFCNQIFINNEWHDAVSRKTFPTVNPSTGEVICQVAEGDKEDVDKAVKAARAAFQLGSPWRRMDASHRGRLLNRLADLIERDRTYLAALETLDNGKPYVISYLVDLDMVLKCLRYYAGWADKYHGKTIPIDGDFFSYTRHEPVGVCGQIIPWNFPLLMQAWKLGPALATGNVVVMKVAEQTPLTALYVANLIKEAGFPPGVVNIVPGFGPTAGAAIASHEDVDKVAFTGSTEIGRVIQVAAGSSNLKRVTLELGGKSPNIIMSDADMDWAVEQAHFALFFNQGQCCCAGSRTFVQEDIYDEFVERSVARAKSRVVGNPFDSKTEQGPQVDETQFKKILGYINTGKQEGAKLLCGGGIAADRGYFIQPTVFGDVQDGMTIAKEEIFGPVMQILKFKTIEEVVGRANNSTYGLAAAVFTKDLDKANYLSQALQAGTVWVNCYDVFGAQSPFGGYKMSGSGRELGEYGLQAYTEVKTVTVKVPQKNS
# UniProt O75843: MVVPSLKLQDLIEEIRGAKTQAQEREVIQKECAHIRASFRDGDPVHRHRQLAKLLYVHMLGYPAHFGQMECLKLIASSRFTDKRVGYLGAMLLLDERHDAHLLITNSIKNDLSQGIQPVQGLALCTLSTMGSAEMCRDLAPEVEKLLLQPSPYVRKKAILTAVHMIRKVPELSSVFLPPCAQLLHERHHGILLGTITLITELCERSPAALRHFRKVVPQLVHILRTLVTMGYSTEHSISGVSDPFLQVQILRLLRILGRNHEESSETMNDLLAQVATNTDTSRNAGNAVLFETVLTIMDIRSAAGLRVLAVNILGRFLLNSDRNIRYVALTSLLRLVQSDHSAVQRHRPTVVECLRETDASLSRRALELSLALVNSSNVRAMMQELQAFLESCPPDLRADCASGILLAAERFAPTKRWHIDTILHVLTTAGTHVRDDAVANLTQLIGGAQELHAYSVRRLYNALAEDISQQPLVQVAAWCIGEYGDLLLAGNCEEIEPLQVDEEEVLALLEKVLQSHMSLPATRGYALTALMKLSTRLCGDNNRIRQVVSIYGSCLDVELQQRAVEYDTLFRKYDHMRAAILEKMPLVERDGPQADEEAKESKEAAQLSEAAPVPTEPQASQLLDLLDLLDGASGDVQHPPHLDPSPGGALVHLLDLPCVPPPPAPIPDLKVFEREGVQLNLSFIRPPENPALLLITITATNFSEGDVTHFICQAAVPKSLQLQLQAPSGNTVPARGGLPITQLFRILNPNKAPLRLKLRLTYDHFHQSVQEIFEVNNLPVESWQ
# UniProt Q6NXT1: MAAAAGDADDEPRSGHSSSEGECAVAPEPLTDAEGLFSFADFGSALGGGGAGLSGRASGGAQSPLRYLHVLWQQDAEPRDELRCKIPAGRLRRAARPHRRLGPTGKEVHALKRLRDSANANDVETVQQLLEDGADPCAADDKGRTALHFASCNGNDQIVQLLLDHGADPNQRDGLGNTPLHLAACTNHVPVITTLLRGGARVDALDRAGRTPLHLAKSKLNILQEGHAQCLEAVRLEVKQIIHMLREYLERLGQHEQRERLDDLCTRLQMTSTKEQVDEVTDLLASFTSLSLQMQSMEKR
# UniProt Q92625: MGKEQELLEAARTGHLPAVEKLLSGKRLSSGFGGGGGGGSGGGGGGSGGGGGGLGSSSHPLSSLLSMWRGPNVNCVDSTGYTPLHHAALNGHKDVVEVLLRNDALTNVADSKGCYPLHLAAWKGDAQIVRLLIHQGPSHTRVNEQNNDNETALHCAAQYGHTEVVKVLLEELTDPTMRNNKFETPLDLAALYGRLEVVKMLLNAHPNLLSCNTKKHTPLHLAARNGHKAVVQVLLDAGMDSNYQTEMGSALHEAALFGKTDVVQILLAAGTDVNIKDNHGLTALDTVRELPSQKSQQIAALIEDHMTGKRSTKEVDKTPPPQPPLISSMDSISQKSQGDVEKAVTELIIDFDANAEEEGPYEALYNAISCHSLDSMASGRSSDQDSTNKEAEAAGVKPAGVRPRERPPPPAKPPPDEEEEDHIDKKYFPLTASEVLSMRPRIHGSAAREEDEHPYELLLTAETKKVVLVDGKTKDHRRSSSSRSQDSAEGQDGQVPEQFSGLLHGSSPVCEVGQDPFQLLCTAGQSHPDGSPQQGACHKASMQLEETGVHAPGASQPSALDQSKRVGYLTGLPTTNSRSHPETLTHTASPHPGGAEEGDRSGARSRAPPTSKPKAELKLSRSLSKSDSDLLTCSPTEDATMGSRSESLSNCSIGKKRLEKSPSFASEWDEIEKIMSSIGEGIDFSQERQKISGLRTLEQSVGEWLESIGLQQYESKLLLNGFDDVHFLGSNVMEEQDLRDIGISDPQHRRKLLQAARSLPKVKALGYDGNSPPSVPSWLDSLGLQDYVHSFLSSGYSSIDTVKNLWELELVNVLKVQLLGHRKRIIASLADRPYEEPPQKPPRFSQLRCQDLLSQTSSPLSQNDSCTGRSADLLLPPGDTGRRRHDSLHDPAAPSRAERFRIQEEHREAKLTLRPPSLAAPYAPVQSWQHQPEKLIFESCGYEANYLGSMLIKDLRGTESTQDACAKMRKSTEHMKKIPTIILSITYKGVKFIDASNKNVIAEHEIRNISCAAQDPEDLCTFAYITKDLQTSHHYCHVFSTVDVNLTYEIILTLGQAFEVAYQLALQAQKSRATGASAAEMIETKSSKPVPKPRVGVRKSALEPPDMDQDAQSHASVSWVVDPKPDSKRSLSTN
# UniProt Q9UM13, whole entry, looked up: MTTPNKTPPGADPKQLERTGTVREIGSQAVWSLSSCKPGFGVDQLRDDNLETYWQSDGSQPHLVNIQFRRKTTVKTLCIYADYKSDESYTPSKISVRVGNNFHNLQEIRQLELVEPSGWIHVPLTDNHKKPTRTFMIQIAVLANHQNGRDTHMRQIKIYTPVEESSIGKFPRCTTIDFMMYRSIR
# UniProt Q9H8Y5: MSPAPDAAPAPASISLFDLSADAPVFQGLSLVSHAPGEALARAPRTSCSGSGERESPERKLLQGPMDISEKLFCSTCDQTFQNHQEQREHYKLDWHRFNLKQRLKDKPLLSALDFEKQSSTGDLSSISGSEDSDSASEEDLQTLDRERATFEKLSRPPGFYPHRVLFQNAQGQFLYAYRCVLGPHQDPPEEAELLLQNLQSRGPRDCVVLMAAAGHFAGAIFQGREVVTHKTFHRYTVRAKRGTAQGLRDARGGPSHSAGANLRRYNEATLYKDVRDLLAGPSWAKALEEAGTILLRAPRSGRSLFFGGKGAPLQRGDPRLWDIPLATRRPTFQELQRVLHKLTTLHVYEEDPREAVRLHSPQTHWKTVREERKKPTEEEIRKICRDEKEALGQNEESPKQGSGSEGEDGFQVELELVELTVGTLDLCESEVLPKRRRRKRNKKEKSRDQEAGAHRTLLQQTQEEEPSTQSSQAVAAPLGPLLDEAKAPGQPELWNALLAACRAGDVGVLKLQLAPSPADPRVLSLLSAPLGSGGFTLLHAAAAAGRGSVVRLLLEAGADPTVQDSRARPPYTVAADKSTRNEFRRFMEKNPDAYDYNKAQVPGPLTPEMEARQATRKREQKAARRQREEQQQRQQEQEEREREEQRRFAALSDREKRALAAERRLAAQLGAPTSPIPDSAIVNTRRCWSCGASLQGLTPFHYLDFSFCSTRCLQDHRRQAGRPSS
# UniProt P15144: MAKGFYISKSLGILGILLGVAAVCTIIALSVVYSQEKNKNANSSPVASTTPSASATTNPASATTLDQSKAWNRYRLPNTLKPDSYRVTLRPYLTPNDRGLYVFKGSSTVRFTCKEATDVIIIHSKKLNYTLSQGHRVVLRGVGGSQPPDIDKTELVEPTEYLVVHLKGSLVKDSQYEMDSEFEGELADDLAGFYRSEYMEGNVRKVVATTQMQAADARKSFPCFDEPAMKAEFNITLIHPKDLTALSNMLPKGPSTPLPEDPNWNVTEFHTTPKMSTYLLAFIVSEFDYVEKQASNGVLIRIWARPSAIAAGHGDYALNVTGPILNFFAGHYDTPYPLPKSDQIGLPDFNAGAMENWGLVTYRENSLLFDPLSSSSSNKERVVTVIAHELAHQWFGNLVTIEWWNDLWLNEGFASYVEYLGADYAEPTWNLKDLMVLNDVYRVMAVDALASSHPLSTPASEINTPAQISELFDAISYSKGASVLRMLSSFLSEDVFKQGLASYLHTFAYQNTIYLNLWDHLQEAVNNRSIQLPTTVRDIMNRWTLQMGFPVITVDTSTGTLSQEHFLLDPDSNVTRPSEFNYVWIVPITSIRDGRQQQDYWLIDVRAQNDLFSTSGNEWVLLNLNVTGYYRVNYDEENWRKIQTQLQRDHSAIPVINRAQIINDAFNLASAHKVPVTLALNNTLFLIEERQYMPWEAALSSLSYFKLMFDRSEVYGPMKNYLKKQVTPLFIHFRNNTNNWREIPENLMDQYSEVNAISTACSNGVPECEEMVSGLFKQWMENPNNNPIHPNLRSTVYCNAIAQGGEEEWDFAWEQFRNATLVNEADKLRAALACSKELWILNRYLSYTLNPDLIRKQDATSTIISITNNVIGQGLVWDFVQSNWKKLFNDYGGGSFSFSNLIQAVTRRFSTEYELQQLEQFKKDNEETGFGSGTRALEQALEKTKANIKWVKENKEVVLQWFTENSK
# UniProt Q92688: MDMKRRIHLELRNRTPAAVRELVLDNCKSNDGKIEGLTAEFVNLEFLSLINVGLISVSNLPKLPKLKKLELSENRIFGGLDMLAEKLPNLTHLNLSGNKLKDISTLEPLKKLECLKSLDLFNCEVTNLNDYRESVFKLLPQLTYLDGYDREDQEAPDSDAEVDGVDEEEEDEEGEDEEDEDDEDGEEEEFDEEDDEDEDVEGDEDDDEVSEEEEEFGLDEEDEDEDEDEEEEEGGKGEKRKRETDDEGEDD
# UniProt P53680: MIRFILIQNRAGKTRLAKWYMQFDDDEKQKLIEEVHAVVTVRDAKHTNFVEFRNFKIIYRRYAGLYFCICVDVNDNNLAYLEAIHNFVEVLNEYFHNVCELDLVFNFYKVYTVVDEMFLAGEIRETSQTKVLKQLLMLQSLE
# UniProt Q5VTE6: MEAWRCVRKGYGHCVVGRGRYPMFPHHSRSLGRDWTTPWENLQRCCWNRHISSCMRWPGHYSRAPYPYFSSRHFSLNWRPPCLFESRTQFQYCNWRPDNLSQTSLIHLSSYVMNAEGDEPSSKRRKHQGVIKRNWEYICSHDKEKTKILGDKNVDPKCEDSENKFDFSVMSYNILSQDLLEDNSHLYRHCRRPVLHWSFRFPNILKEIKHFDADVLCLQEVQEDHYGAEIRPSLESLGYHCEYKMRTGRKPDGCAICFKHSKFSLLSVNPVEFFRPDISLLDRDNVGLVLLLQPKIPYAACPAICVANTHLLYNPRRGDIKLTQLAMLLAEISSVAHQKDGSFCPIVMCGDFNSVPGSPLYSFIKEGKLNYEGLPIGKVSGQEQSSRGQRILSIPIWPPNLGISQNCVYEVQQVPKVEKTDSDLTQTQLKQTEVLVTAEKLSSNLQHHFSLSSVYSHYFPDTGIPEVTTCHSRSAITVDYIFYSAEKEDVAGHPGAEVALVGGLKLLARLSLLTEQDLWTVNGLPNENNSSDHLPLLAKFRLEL
# The list shows a part of the results.
# Assays:
# Experiment in all cases: log2 fold change, soluble protein after heating vs DMSO (PISA); higher = thermal stabilisation; K562 lysate, 10 uM; active = over 0.2 and 3.5 SD of the protein, either way, in both replicates (recomputed)
# [1] = compound: CN1CC[C@H](c2c(O)cc(O)c3c(=O)cc(-c4ccccc4Cl)oc23)[C@H](O)C1 [alvocidib]
# Procedure, shortened: (§1)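 K562 pellets were dounce-homogenised in PBS pH 7.4 containing 1 mM MgCl2, and the crude extract, at 1 mg/mL protein, was exposed to 10 μM compound for 30 min. Aliquots were heated for 3 min across 48°C-58°C, pooled, brought to 0.5% NP-40 at 4°C and spun at 21,000xg for 90 min, with the supernatant taken as soluble protein. TMTpro 16plex LC-MS/MS with equalised channel sums quantified that protein. Values are log-two fold changes in thermal stability relative to solvent controls, taken from duplicates.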
# [2] = compound: CN1CCc2c(c3ccccc3n2Cc2ccc(C(=O)NO)cc2)C1 [Tubastatin A]
# Procedure, shortened: as §1
# [3] = compound: CNC(=O)C1=CC=CC=C1NC2=NC(=NC=C2Cl)NC3=C(C=C(C=C3)N4CCOCC4)OC
# Procedure, shortened: as §1
# [4] = compound: CNC(=O)c1ccc(Nc2ncc(C(F)(F)F)c(NCc3nccnc3N(C)S(C)(=O)=O)n2)cc1 [defactinib]
# Procedure, shortened: as §1
# [5] = compound: CNc1nc(-c2ccc3c(N)n[nH]c3c2)cc(N2C[C@@H](C(=O)NC3CCCCC3)CC[C@H]2C)n1
# Procedure, shortened: as §1
# [6] = compound: COC(=O)N[C@@H](C)CNc1nccc(-c2cn(C(C)C)nc2-c2cc(Cl)cc(NS(C)(=O)=O)c2F)n1 [encorafenib]
# Procedure, shortened: as §1
# [7] = compound: COC(=O)[C@H](CCSC)NC(=O)C1=C(C=C(C=C1)NC[C@H](CS)N)C2=CC=CC=C2
# Procedure, shortened: as §1
# [8] = compound: COc1cc(Nc2ncc3c(n2)-c2ccc(Cl)cc2C(c2c(F)cccc2OC)=NC3)ccc1C(=O)O [alisertib]
# Procedure, shortened: as §1
# [9] = compound: COc1cc2nc(-c3cc(F)ccc3O)nc(N[C@@H]3CNC[C@H]3C(C)(C)O)c2cc1OC
# Procedure, shortened: as §1
# [10] = compound: COc1cc2ncnc(Nc3ccc(F)c(Cl)c3)c2cc1OCCCN1CCOCC1 [gefitinib]
# Procedure, shortened: as §1
# [11] = compound: CS(=O)(=O)CCNCc1ccc(-c2ccc3ncnc(Nc4ccc(OCc5cccc(F)c5)c(Cl)c4)c3c2)o1 [lapatinib]
# Procedure, shortened: as §1
# [12] = compound: CS(=O)(=O)N1CCN(Cc2cc3nc(-c4cccc5[nH]ncc45)nc(N4CCOCC4)c3s2)CC1 [pictilisib]
# Procedure, shortened: as §1
# [13] = compound: C[C@@H](Oc1cc(-c2cnn(C3CCNCC3)c2)cnc1N)c1c(Cl)ccc(F)c1Cl [crizotinib]
# Procedure, shortened: as §1
# [14] = compound: C[C@H](C1=CC=C(C=C1)C(=O)NC2=C3C=CNC3=NC=C2)N
# Procedure, shortened: as §1
# [15] = compound: C[C@H](Nc1ncnc2nc[nH]c12)c1cc2cccc(Cl)c2c(=O)n1-c1ccccc1 [duvelisib]
# Procedure, shortened: as §1
# [16] = compound: Cc1cc(Nc2cc(CN3CCOCC3)c3nc(C)c(Cc4ccc(Cl)cc4F)n3n2)n[nH]1 [gandotinib]
# Procedure, shortened: as §1
# [17] = compound: Cc1cc(Nc2cc(N3CCN(C)CC3)nc(Sc3ccc(NC(=O)C4CC4)cc3)n2)n[nH]1 [tozasertib]
# Procedure, shortened: as §1
# [18] = compound: Cc1ccc(-n2nc(C(C)(C)C)cc2NC(=O)Nc2ccc(OCCN3CCOCC3)c3ccccc23)cc1 [doramapimod]
# Procedure, shortened: as §1
# [19] = compound: Cc1ccc(NC(=O)c2ccc(CN3CC[C@H](N(C)C)C3)c(C(F)(F)F)c2)cc1Nc1nccc(-c2cncnc2)n1 [bafetinib]
# Procedure, shortened: as §1
# [20] = compound: Cc1cccc(CC(=O)N2CCc3c2ccc(-c2cn(C)c4ncnc(N)c24)c3F)n1
# Procedure, shortened: as §1
Target,log2 fold change [1],log2 fold change [2],log2 fold change [3],log2 fold change [4],log2 fold change [5],log2 fold change [6],log2 fold change [7],log2 fold change [8],log2 fold change [9],log2 fold change [10],log2 fold change [11],log2 fold change [12],log2 fold change [13],log2 fold change [14],log2 fold change [15],log2 fold change [16],log2 fold change [17],log2 fold change [18],log2 fold change [19],log2 fold change [20]
AP2A1 (UniProt O95782),inactive: 0.003,inactive: 0.026,inactive: 0.054,inactive: 0.021,inactive: 0,inactive: -0.015,inactive: -0.018,inactive: 0,inactive: -0.004,inactive: 0.008,inactive: -0.014,inactive: 0.019,inactive: -0.012,inactive: -0.1,inactive: 0.002,inactive: 0.102,inactive: 0.016,inactive: 0.043,inactive: -0.009,inactive: 0.009
ALKBH8 isoform 4 (UniProt Q96BT7),inactive: -0.025,inactive: 0.06,inactive: 0.032,inactive: 0.027,inactive: 0.012,inactive: 0.077,inactive: 0.065,inactive: -0.009,inactive: -0.007,inactive: 0.085,inactive: 0.002,inactive: -0.012,inactive: -0.005,inactive: -0.097,inactive: 0.048,inactive: 0,inactive: -0.032,inactive: 0.017,inactive: -0.046,inactive: 0.072
ANKRD49 (UniProt Q8WVL7),inactive: -0.033,inactive: -0.02,inactive: 0.01,inactive: 0.014,inactive: 0.028,inactive: 0.002,inactive: 0.002,inactive: -0.006,inactive: -0.042,inactive: -0.024,inactive: 0,inactive: -0.015,inactive: -0.01,inactive: 0.046,inactive: 0.003,inactive: 0.048,inactive: 0.107,inactive: 0.056,inactive: 0.013,inactive: 0.081
ALDH2 (UniProt P05091),inactive: 0.059,inactive: -0.006,active: 0.437,inactive: -0.03,inactive: -0.051,inactive: 0.006,inactive: -0.03,inactive: 0.037,inactive: -0.016,inactive: 0.014,inactive: 0,inactive: 0,inactive: -0.02,inactive: -0.012,inactive: -0.03,inactive: 0.011,inactive: 0.023,inactive: -0.023,inactive: 0.017,inactive: -0.077
AP1G2 (UniProt O75843),inactive: 0.04,inactive: -0.099,inactive: 0.068,inactive: -0.006,inactive: 0.036,inactive: -0.03,inactive: -0.015,inactive: 0.037,inactive: 0.056,inactive: 0.03,inactive: 0.068,inactive: -0.008,inactive: -0.095,inactive: -0.049,inactive: -0.02,inactive: 0,inactive: -0.02,inactive: -0.004,inactive: 0.026,inactive: 0.039
ANKRD54 (UniProt Q6NXT1),inactive: -0.019,inactive: -0.095,inactive: 0.121,inactive: 0.022,inactive: 0.042,inactive: 0.082,inactive: -0.147,inactive: 0.006,inactive: -0.011,inactive: 0.002,inactive: 0.038,inactive: -0.008,inactive: 0.058,inactive: 0.01,inactive: 0.008,inactive: 0.049,inactive: -0.002,inactive: 0.044,inactive: -0.029,inactive: -0.007
ANK1 isoform 14 (UniProt P16157),inactive: 0.03,inactive: -0.083,inactive: 0.036,inactive: 0.008,inactive: -0.019,inactive: 0.018,inactive: 0.104,inactive: -0.012,inactive: 0.009,inactive: 0.006,inactive: -0.008,inactive: -0.019,inactive: -0.039,inactive: 0.041,inactive: -0.017,inactive: -0.049,inactive: 0.001,inactive: -0.029,inactive: -0.057,inactive: -0.011
ANKS1A (UniProt Q92625),inactive: -0.064,inactive: -0.065,inactive: 0.032,inactive: 0.04,inactive: 0.008,inactive: 0.061,inactive: 0.038,inactive: -0.016,inactive: -0.004,inactive: 0.002,inactive: -0.011,inactive: 0.032,inactive: -0.035,inactive: -0.158,inactive: 0.007,inactive: 0.117,inactive: -0.029,inactive: 0.009,inactive: -0.029,inactive: 0.127
ANAPC10 (UniProt Q9UM13),inactive: -0.006,inactive: -0.003,inactive: 0.075,inactive: 0.008,inactive: 0.009,inactive: 0,inactive: -0.066,inactive: 0.008,inactive: -0.002,inactive: 0.012,inactive: -0.008,inactive: -0.012,inactive: -0.003,inactive: -0.038,inactive: 0.025,inactive: 0.029,inactive: 0,inactive: -0.049,inactive: -0.047,inactive: 0.026
AP3B2 isoform 4 (UniProt Q13367),inactive: -0.008,inactive: -0.033,inactive: 0.023,inactive: 0.003,inactive: 0.025,inactive: 0.05,inactive: -0.01,inactive: 0.014,inactive: -0.018,inactive: 0.02,inactive: 0.011,inactive: -0.021,inactive: -0.005,inactive: -0.058,inactive: -0.04,inactive: 0.055,inactive: 0.021,inactive: 0.07,inactive: -0.004,inactive: 0.06
ANKZF1 (UniProt Q9H8Y5),inactive: -0.059,inactive: -0.03,inactive: 0.025,inactive: -0.005,inactive: 0.023,inactive: -0.001,inactive: 0.073,inactive: -0.035,inactive: -0.046,inactive: 0.014,inactive: -0.012,inactive: 0.029,inactive: -0.025,inactive: -0.008,inactive: -0.01,inactive: -0.03,inactive: 0.019,inactive: 0.013,inactive: 0.007,inactive: 0.036
ANPEP (UniProt P15144),inactive: 0.002,inactive: 0.063,inactive: 0,inactive: 0.006,inactive: 0.001,inactive: 0.069,inactive: -0.124,inactive: -0.082,inactive: 0.047,inactive: 0.002,inactive: -0.049,inactive: 0,inactive: 0.019,inactive: -0.19,inactive: -0.035,inactive: 0.055,inactive: 0.068,inactive: -0.044,inactive: -0.1,inactive: 0.078
ANP32B (UniProt Q92688),inactive: 0.002,inactive: 0.024,inactive: 0.01,inactive: -0.026,inactive: 0.018,inactive: -0.018,inactive: -0.048,inactive: 0.032,inactive: -0.012,inactive: 0.007,inactive: 0.042,inactive: 0.012,inactive: 0.006,inactive: -0.032,inactive: 0.017,inactive: 0.015,inactive: 0.016,inactive: 0.031,inactive: 0.041,inactive: -0.008
AP2S1 (UniProt P53680),inactive: -0.006,inactive: 0.007,inactive: -0.012,inactive: 0.006,inactive: -0.139,inactive: 0.045,inactive: -0.056,inactive: 0.022,inactive: -0.014,inactive: 0.036,inactive: -0.008,inactive: 0.002,inactive: 0,inactive: -0.082,inactive: 0.023,inactive: 0.046,inactive: 0.062,inactive: 0.053,inactive: -0.046,inactive: -0.005
AP3D1 isoform 5 (UniProt O14617),inactive: -0.02,inactive: -0.048,inactive: 0.018,inactive: 0.033,inactive: 0.03,inactive: 0.026,inactive: -0.028,inactive: -0.009,inactive: 0.004,inactive: -0.014,inactive: 0.008,inactive: 0.01,inactive: -0.02,inactive: -0.061,inactive: 0.023,inactive: 0.05,inactive: 0.019,inactive: 0.059,inactive: -0.042,inactive: 0.081
ANGEL2 (UniProt Q5VTE6),inactive: 0.066,inactive: 0.042,inactive: -0.107,inactive: 0.022,inactive: 0.012,inactive: 0.027,inactive: -0.002,inactive: -0.117,inactive: 0.093,inactive: -0.206,inactive: 0.051,inactive: 0.047,inactive: -0.066,inactive: 0.006,inactive: 0.003,inactive: 0.061,inactive: 0.034,inactive: 0.036,inactive: 0.02,inactive: -0.029

# Part of the list above, with tabs.
Target	log2 fold change [1]	log2 fold change [2]	log2 fold change [3]	log2 fold change [4]	log2 fold change [5]	log2 fold change [6]	log2 fold change [7]	log2 fold change [8]	log2 fold change [9]	log2 fold change [10]	log2 fold change [11]	log2 fold change [12]	log2 fold change [13]	log2 fold change [14]	log2 fold change [15]	log2 fold change [16]	log2 fold change [17]	log2 fold change [18]	log2 fold change [19]	log2 fold change [20]
AP1G2 (UniProt O75843)	inactive: 0.04	inactive: -0.099	inactive: 0.068	inactive: -0.006	inactive: 0.036	inactive: -0.03	inactive: -0.015	inactive: 0.037	inactive: 0.056	inactive: 0.03	inactive: 0.068	inactive: -0.008	inactive: -0.095	inactive: -0.049	inactive: -0.02	inactive: 0	inactive: -0.02	inactive: -0.004	inactive: 0.026	inactive: 0.039
ANKRD54 (UniProt Q6NXT1)	inactive: -0.019	inactive: -0.095	inactive: 0.121	inactive: 0.022	inactive: 0.042	inactive: 0.082	inactive: -0.147	inactive: 0.006	inactive: -0.011	inactive: 0.002	inactive: 0.038	inactive: -0.008	inactive: 0.058	inactive: 0.01	inactive: 0.008	inactive: 0.049	inactive: -0.002	inactive: 0.044	inactive: -0.029	inactive: -0.007
